The results in this text go back to article PMC4293114.

Amino acid sequences for entries named in this document (tags omitted).
UniProt P83917: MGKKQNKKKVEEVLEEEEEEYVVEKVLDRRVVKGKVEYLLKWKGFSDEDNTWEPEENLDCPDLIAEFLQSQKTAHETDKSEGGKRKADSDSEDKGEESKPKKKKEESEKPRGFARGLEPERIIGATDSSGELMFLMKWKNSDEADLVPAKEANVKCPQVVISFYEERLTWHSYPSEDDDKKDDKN

Results are given in words; binding and its absence hold for the method and conditions named. In cells and extracts the contact can be indirect. Some binding calls cover weakened binding; strength is not graded here.

This test addresses T1, endogenous UBF1/2 (upstream binding factor 1) (mouse (endogenous in mouse embryonic fibroblasts / 3T3 cells)) (UniProt P25976).
T1 sequence: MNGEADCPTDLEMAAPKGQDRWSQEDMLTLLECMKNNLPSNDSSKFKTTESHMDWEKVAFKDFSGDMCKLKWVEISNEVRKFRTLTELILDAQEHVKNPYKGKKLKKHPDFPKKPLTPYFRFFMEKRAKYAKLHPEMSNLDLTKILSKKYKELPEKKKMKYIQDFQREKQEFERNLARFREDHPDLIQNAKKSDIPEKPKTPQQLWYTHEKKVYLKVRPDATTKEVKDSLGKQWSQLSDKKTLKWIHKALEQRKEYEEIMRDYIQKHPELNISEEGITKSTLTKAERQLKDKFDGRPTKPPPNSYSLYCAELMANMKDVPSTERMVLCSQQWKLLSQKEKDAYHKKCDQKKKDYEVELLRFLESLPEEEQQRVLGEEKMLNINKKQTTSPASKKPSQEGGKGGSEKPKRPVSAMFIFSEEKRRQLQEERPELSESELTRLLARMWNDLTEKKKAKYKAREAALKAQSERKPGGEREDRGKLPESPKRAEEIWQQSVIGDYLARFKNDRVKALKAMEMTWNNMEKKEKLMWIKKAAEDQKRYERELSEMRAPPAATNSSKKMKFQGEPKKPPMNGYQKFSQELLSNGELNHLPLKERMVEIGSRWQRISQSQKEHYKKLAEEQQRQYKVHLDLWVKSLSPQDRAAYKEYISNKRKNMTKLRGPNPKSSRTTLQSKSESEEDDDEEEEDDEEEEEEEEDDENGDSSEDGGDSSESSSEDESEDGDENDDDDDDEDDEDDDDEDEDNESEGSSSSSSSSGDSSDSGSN
The test can be described thus: co-IP; lysates of cells overexpressing full-length GFP-HP1β or GFP-HP1β-ΔCSD, immunoprecipitated with anti-UBF1 (H-300), Western blot of HP1β.

Regarding “full-length GFP-HP1β (from UniProt P83917 1-185)”, the binding result was “binds”.
